Experimental data taken from article PMC6172191.
These are yes or no findings as the source states them, for the method shown. In cells and extracts the contact can be indirect. Some binding calls cover weakened binding; strength is not graded here. For some assays here: Tags and fused reporters may be left off the sequences shown.

Protein sequences, listed by entry. Tags and fused reporters are not part of them.
UniProt O75131: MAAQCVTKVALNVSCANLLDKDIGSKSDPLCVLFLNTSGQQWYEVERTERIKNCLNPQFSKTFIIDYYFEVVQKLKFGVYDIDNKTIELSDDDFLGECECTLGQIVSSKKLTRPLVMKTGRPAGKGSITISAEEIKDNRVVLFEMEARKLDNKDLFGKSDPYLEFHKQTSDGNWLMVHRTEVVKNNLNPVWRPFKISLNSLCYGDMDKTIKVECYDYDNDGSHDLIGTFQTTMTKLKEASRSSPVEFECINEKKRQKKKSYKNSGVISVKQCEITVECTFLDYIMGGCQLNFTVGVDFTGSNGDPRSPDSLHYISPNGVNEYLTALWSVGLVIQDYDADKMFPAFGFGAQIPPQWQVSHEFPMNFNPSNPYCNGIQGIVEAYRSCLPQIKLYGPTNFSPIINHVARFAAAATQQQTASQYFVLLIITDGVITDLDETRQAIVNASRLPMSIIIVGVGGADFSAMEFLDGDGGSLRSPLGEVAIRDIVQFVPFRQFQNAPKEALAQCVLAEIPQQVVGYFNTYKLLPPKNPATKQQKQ

What was measured:
[1] = target: T1, EMP1 intracellular loop peptide (…) (human); assay: pull-down; peptide-bound Sepharose beads or control beads with lysates of HEK293 cells transfected with EGFP-copine-III constructs; western blotting; only the target purified
T1 sequence (peptide): FTMEKGNRF

FLAG-EMP1 (human) [2] = target: T2, FLAG-EMP1 (human) (UniProt P54849); assay: co-IP; membrane fraction of Cos7 cells transfected with FLAG-EMP1 and EGFP-copine-III; anti-FLAG antibody or control IgG; western blotting
T2 sequence (chain, glycosylated (site not stated)): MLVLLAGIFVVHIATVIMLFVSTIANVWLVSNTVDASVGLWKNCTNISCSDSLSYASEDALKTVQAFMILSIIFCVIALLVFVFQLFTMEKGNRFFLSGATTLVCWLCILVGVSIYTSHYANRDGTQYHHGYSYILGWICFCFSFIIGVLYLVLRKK

[3] = target: T3, EMP1 (endogenous) (human (endogenous in PC3)) (UniProt P54849); assay: co-IP; endogenous proteins in PC3 cell lysates (Supplementary Figure S2); immunoprecipitation and western blotting
T3 sequence: T2 sequence (chain, glycosylated (site not stated))

FLAG-EMP1 (human) [4] = target: T2, FLAG-EMP1 (human); assay: co-IP; lysates of LNCaP #2 and #17 cells (RIPA buffer); primary antibody (anti-FLAG, anti-Src, anti-copine-III or anti-Vav2) overnight at 4 °C, protein G Sepharose; western blotting

In the case of “EGFP-copine-III-WT (from UniProt O75131 1-537)”, the binding [1] is reported as “binds” and the binding (FLAG-EMP1 (human) [2]) is reported as “binds”.

“copine-III (endogenous) (from UniProt O75131 1-537)” was tested, and the binding [1] was “binds”, the binding [3] was “binds” and the binding (FLAG-EMP1 (human) [4]) was “binds”.
